The values below come from US20250026916A1, “ULTRAVIOLET ABSORBER AND USE THEREOF” (RIANLON (ZHONGWEI) NEW MATERIAL CO., LTD., priority 2023, published 2025).

This data set can be described thus: Xenon lamp aging of two-component acrylic varnish on epoxy-reinforced carbon fiber plate (gloss, adhesive force). Particulars: for 20° gloss, initial: 1 wt % absorber in component A with 0.6 wt % Riasorb UV-123, before aging; for Adhesive force after 6000 h of Xenon Exposure / 20° gloss after aging 2000 h / 20° gloss after aging 4000 h / 20° gloss after aging 6000 h: 1 wt % absorber in component A; for Adhesive force after 6000 h of Xenon Exposure: ISO 2409-2013; for 20° gloss after aging 2000 h / 20° gloss after aging 4000 h / 20° gloss after aging 6000 h: xenon lamp, SAE J2527.

SMILES strings stand for the structures.

`CCCCCCCCCCCCSc1ccc2nn(-c3cc(C)cc(C(C)(C)C)c3O)nc2c1` [RSUV-1]: the “20° gloss, initial” value was determined as 90.4; the “Adhesive force after 6000 h of Xenon Exposure” value is recorded as “Rate 4, a large area dropped”; the “20° gloss after aging 2000 h” value is recorded as 78.5; the “20° gloss after aging 4000 h” value amounted to 65.3. In addition, the “20° gloss after aging 6000 h” value amounted to 50.4.

In the case of `CCCCCCCCCCCCS(=O)(=O)c1ccc2nn(-c3cc(C)cc(C(C)(C)C)c3O)nc2c1` [RSUV-2], the “20° gloss, initial” value came out at 91.0; the “Adhesive force after 6000 h of Xenon Exposure” value is listed as “Rate 2, a small amount”; the “20° gloss after aging 2000 h” value was determined as 85.0; the “20° gloss after aging 4000 h” value is 68.2. Besides, the “20° gloss after aging 6000 h” value is listed as 55.9.
